In the test the target is YPet-ZBP1_(170-355) (human) (UniProt Q9H171). In words: sodium dodecyl sulfate agarose gel electrophoresis (SDS-AGE); as a8, but assembled samples incubated with 2% SDS at room temperature for 10 min before electrophoresis; both purified.

No constants are given. Whether binding was seen depends on the method and setting.

B1: YPet-ZBP1_(170-355) (domain or fragment)
chain: SGRRAKSASIIYQHNPINMICQNGPNSWISIANSEAIQIGHGNIITRQTVSREDGSAGPRHLPSMAPGDSSTWGTLVDPWGPQDIHMEQSILRRVQLGHSNEMRLHGVPSEGPAHIPPGSPPVSATAAGPEASFEARIPSPGTHPEGEAAQRIHMKSCFLEDATIGNSNKMSISPGVAGPGGVAGS
notes: human ZBP1, RHIM-containing region, residues 170-355; also called YPet-ZBP1 RHIM; source: E. coli BL21(DE3) pLysS, purified from inclusion bodies under denaturing conditions (Ni-NTA)
Regarding B1, the binding entry is “no binding (condition: incubation with 2% SDS for 10 min)”.

These data come from article PMC7375649, “Varicella zoster virus encodes a viral decoy RHIM to inhibit cell death” (PLoS Pathogens, 2020).
